The record followed here is PMC9588232.

By UniProt entry, the sequences of proteins in these tests, tags left out.
UniProt Q86WV6: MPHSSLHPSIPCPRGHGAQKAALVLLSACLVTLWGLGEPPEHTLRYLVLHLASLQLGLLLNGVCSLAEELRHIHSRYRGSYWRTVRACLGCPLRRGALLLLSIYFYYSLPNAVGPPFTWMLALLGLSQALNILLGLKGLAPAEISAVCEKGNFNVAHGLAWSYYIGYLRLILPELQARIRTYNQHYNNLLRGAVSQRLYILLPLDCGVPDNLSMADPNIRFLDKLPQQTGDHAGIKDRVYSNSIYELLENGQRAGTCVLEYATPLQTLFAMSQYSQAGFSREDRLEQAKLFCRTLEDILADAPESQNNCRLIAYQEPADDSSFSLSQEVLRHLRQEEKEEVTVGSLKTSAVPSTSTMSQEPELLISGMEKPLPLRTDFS
UniProt P29350: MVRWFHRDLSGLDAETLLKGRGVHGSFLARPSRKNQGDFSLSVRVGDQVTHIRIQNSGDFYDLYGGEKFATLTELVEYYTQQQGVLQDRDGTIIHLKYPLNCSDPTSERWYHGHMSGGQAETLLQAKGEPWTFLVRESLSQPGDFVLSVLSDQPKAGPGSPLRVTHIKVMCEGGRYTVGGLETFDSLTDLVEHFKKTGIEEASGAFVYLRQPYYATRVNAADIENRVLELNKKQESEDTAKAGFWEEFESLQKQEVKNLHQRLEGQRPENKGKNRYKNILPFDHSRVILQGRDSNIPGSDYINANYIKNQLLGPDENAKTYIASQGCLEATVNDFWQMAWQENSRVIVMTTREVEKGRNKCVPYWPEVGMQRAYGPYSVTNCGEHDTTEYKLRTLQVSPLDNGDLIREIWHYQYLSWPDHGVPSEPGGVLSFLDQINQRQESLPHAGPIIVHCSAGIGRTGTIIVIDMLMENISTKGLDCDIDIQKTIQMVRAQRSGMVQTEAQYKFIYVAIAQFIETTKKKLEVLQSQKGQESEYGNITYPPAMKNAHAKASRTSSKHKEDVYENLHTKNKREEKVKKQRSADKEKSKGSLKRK

The target of this assay is stimulator of interferon genes (STING) (human (endogenous in ARPE-19)) (UniProt Q86WV6). The assay can be described thus: co-IP; endogenous immunoprecipitation from ARPE-19 cell lysates; supernatants with the antibody at 4 °C overnight, AG beads 2 h at 4 °C, washed with PBS-Tween, western blot; cells exposed to atRAL (7.5 μM, 0, 3, 6, 12 h); also scramble-rLV- and shRNA-SHP-1-rLV-transfected cells with atRAL (7.5 μM, 6 h). (In western blotting, separated proteins are transferred to a membrane and probed.)

Results are given in words; binding and its absence hold for the method and conditions named. In cells and extracts the contact can be indirect. Some binding calls cover weakened binding; strength is not graded here.

Regarding “Src-homology 2 domain-containing phosphatase (SHP)-1 (from UniProt P29350 1-595) (enzyme)”, the binding result was “binds”.
